Taken from: PubChem BioAssay AID1259425 (University of Nebraska Medical Center, 2018)
Test: 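Seek colon cancer weak points whose silencing resembles KSR1 loss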 (primary screen). Cell system: HCT116 human colon cancer cells. Knock-down reagent: siRNA pool against human genes, 50 nM siRNA. Measurement: 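After 50 nM siRNA pool, branched-DNA assay measures six marker transcripts per well, minus blank, normalised to the geometric mean of two housekeeping transcripts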. Direction: BNIP3L mRNA: higher = more BNIP3L transcript after knockdown; NDRG1 mRNA: higher = more NDRG1 transcript after knockdown.
Here is one part, drawn at random, of about 14,000 reagents tested. Not all columns of the deposit are shown. Reagent sequences are not shown. Not stated in the record: the time to read-out.

KDM2B showed BNIP3L mRNA, set 1 = 0.155; NDRG1 mRNA, set 1 = 0.24.
DDX1 scored BNIP3L mRNA, set 1 = 0.0769; NDRG1 mRNA, set 1 = 0.208.
DDX3Y scored BNIP3L mRNA, set 1 = 0.0368; NDRG1 mRNA, set 1 = 0.0803.
Knock-down of HOXA1 came out at: BNIP3L mRNA, set 1 = 0.209; NDRG1 mRNA, set 1 = 0.465.
Against GHSR the deposit lists BNIP3L mRNA, set 1 = 0.179; NDRG1 mRNA, set 1 = 0.93.
WBP4 scored BNIP3L mRNA, set 1 = 0.137; NDRG1 mRNA, set 1 = 0.265.
Depletion of MICAL1 gave: BNIP3L mRNA, set 1 = 0.138; NDRG1 mRNA, set 1 = 0.297.
With knock-down of H2AZ1, the screen gave BNIP3L mRNA, set 1 = 0.117; NDRG1 mRNA, set 1 = 0.188.
RAB22A showed BNIP3L mRNA, set 1 = 0.0916; NDRG1 mRNA, set 1 = 0.174.
After knock-down of CFTR, the screen gave BNIP3L mRNA, set 1 = 0.049; NDRG1 mRNA, set 1 = 0.106.
With knock-down of BACE2 the results were BNIP3L mRNA, set 1 = 0.181; NDRG1 mRNA, set 1 = 0.251.
LINC00260 scored BNIP3L mRNA, set 1 = 0.135; NDRG1 mRNA, set 1 = 0.389.
With knock-down of PPID, the record shows BNIP3L mRNA, set 1 = 0.0811; NDRG1 mRNA, set 1 = 0.102.
GYPB gave BNIP3L mRNA, set 1 = 0.0953; NDRG1 mRNA, set 1 = 0.144.

In a second layout: results already given.
gene symbol | BNIP3L mRNA, set 1 | NDRG1 mRNA, set 1
WBP4 | 0.137 | 0.265
MICAL1 | 0.138 | 0.297
H2AZ1 | 0.117 | 0.188
RAB22A | 0.0916 | 0.174

The list goes on:
Knock-down of PLPBP came out at: BNIP3L mRNA, set 1 = 0.127; NDRG1 mRNA, set 1 = 0.754.
Against DEFA6, the values are BNIP3L mRNA, set 1 = 0.0975; NDRG1 mRNA, set 1 = 0.24.
After knock-down of SLC30A3 the results were BNIP3L mRNA, set 1 = 0.134; NDRG1 mRNA, set 1 = 0.347.
With knock-down of INPP5B, the record shows BNIP3L mRNA, set 1 = 0.0528; NDRG1 mRNA, set 1 = 0.339.
ADAMTS9 showed BNIP3L mRNA, set 1 = 0.125; NDRG1 mRNA, set 1 = 0.133.
Against ACADVL, the values are BNIP3L mRNA, set 1 = 0.0909; NDRG1 mRNA, set 1 = 0.217.
MNMIP1 showed BNIP3L mRNA, set 1 = 0.169; NDRG1 mRNA, set 1 = 0.2.
Against SP1, the entry reads BNIP3L mRNA, set 1 = 0.104; NDRG1 mRNA, set 1 = 0.114.
After knock-down of IMPDH2 the results were BNIP3L mRNA, set 1 = 0.0813; NDRG1 mRNA, set 1 = 0.715.
For RTN4, the values are BNIP3L mRNA, set 1 = 0.0658; NDRG1 mRNA, set 1 = 0.109.
With knock-down of PPP1R1B, the screen gave BNIP3L mRNA, set 1 = 0.0723; NDRG1 mRNA, set 1 = 0.0997.
OASL gave BNIP3L mRNA, set 1 = 0.147; NDRG1 mRNA, set 1 = 0.183.
Depletion of CDK1 came out at: BNIP3L mRNA, set 1 = 0.108; NDRG1 mRNA, set 1 = 1.42.
MRPL9 showed BNIP3L mRNA, set 1 = 0.0932; NDRG1 mRNA, set 1 = 0.151.
